# Measurements as given in article PMC6925144, “A prospective compound screening contest identified broader inhibitors for Sirtuin 1” (Scientific Reports, 2019).
# Sequences of proteins named here, by UniProt entry; tags and fusion partners are left off. Residues count along the entry.
# UniProt Q96EB6, 2-747 limits assumed: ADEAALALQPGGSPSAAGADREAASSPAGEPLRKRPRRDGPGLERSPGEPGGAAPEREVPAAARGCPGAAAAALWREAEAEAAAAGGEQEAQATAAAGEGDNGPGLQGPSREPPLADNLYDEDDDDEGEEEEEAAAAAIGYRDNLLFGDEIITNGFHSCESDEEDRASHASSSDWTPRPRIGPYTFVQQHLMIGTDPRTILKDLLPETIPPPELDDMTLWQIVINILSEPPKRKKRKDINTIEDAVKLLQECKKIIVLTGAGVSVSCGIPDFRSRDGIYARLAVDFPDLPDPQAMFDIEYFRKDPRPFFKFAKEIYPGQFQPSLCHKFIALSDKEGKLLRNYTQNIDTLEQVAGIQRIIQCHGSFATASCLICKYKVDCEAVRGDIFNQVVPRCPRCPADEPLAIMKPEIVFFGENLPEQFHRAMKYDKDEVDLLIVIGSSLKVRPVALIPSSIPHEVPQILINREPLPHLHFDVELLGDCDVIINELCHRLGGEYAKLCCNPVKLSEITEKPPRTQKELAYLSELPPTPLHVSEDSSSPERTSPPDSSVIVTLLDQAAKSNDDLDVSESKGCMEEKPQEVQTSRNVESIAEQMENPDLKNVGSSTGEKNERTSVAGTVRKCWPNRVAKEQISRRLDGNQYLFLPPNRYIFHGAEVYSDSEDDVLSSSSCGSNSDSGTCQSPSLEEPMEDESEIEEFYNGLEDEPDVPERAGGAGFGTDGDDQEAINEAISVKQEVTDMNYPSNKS
# The full ranking holds about 3,200 compounds; the median of “TSA(with NAD+) / Primary screening (TSA) / delta Tm (K)” is about -0.04, and the highest 2% start at about 0.37. Some of the results follow.
# Target: NAD-dependent deacetylase Sirtuin 1 (human, UniProt Q96EB6)
# Experiment: primary screen, delta tm
# Parameters: single well (n = 1, as 'the same TSA')
# Conditions: 10 µM
row,Structure (SMILES),TSA(with NAD+) / Primary screening (TSA) / delta Tm (K)
1,O=c1cc(N2CCC(Nc3ccccc3)CC2)nc2ccccn12,0.07
2,O=C1CC[C@@H](Nc2cnc3cc(F)c(F)cc3n2)[C@H](c2ccccc2)N1,0.15
3,Nc1ccc(-n2ncc3c(=O)[nH]cnc32)cc1,0.35
4,Cc1cc(C)c2c(n1)sc1c(N3CCOCC3)ncnc12,0.08
5,C1CCCC2(CC1)CCNC2,-0.12
6,Cc1ccc(N(C)S(=O)(=O)c2cccc(C(=O)NNC(=O)c3ccncc3)c2)cc1,-0.01
7,CN(C)c1ccnc(N2CCCC(N3CCNC3=O)C2)n1 (centres unmarked),-0.11
8,O=C(Nc1ccc2[nH]c(=O)[nH]c2c1)c1cc(S(=O)(=O)NCC2CCCO2)ccc1Br (centres unmarked),-0.01
9,Cc1c(C(=O)C2=C(O)C(=O)N(CCCN3CCOCC3)C2c2ccco2)cnn1-c1ccccc1 (centres unmarked),-0.05
10,CC(=O)Nc1cccc2c1CCN(c1cc(=O)n3ccccc3n1)C2,-0.03
11,O=C(Nc1cccc(S(=O)(=O)N2CCOCC2)c1)c1cn(-c2ccccc2)nc1-c1ccc(Cl)cc1,0.63
12,CC(C)(C)c1ccccc1NC(=O)c1ccc(S(=O)(=O)N2CCCC2)cc1,-0.12
13,CCOC(=O)CN,-0.28
14,CN(C)C(C)(C)CNCc1c[nH]nc1-c1ccc2c(c1)OCCO2,-0.05
15,COc1cccc(/C=N/c2ccc(C)cc2C)c1O,-0.05
16,Cc1ccc(NC(=O)c2ccc(Cl)nc2Cl)cc1Cl,0.02
17,Cc1ccc(OCc2nc3ccccc3n2Cc2ccccc2)cc1,-0.21
18,CCOc1ccc(C(NC(=O)c2cccc(C(N)=O)c2)c2ccccc2)cc1 (centres unmarked),-0.09
19,Cc1sc2ncnc(N3CCC(C(=O)Nc4nn5cnnc5s4)CC3)c2c1C,0.06
20,NC(=O)C1CCN(C(=O)c2ccn(-c3ccc(F)cc3)n2)C1 (centres unmarked),-0.21
21,O=C(OCC(=O)C12CC3CC(CC(C3)C1)C2)c1nn(Cc2ccccc2)c(=O)c2ccccc12,0.03
22,Cc1cc(C(=O)O)c2ccccc2n1,-0.16
23,CC1CCc2[nH]c3ccc(C(=O)O)cc3c2C1 (centres unmarked),-0.09
24,N#CCc1c[nH]c2ccc(C(N)=O)cc12,-0.23

# Compounds from the list above that have a carbonyl joined to an NH by a bond outside any ring, in the order listed:
row,Structure (SMILES),TSA(with NAD+) / Primary screening (TSA) / delta Tm (K)
6,Cc1ccc(N(C)S(=O)(=O)c2cccc(C(=O)NNC(=O)c3ccncc3)c2)cc1,-0.01
8,O=C(Nc1ccc2[nH]c(=O)[nH]c2c1)c1cc(S(=O)(=O)NCC2CCCO2)ccc1Br (centres unmarked),-0.01
10,CC(=O)Nc1cccc2c1CCN(c1cc(=O)n3ccccc3n1)C2,-0.03
11,O=C(Nc1cccc(S(=O)(=O)N2CCOCC2)c1)c1cn(-c2ccccc2)nc1-c1ccc(Cl)cc1,0.63
12,CC(C)(C)c1ccccc1NC(=O)c1ccc(S(=O)(=O)N2CCCC2)cc1,-0.12
16,Cc1ccc(NC(=O)c2ccc(Cl)nc2Cl)cc1Cl,0.02
18,CCOc1ccc(C(NC(=O)c2cccc(C(N)=O)c2)c2ccccc2)cc1 (centres unmarked),-0.09
19,Cc1sc2ncnc(N3CCC(C(=O)Nc4nn5cnnc5s4)CC3)c2c1C,0.06
20,NC(=O)C1CCN(C(=O)c2ccn(-c3ccc(F)cc3)n2)C1 (centres unmarked),-0.21
24,N#CCc1c[nH]c2ccc(C(N)=O)cc12,-0.23

# Remaining list, next part

row,Structure (SMILES),TSA(with NAD+) / Primary screening (TSA) / delta Tm (K)
1,Cc1ccc2c(COc3ncnc4sc5c(c34)CCC5)cc(=O)oc2c1C,-0.09
2,O=c1cc(N2CCc3ccccc3CC2)nc2ccccn12,-0.11
3,Nc1nc(CN2CC(CO)Oc3ccccc32)nc(Nc2ccc(F)cc2)n1 (centres unmarked),0.15
4,CC1CN(S(=O)(=O)c2cccc(C(=O)OCC(=O)COC(=O)c3cccc(S(=O)(=O)N4CC(C)OC(C)C4)c3)c2)CC(C)O1 (centres unmarked),-0.34
5,NC(=O)C1CCCN(c2ncnc3cc(Cl)ccc23)C1 (centres unmarked),-0.18
6,CC1COCCN1c1ncnc2ccsc12 (centres unmarked),0.03
7,Cc1ccccc1COC(=O)/C(=C\c1ccccc1)n1nnnc1C,-0.21
8,COc1cccc(C2C(C(=O)/C=C/c3ccco3)=C(O)C(=O)N2CCCN2CCOCC2)c1OC (centres unmarked),-0.01
9,CC[C@@H]1C[C@H]1CN,-0.09
10,Cc1cnc(C(=O)Nc2ccc(I)cc2C)cn1,-0.09
11,NC(=O)C1(c2ccccc2)CCNC1 (centres unmarked),-0.05
12,NC(=O)Cn1cnc2c(cnn2-c2ccccc2)c1=O,-0.01
13,NC(=O)c1c(NC(=O)CSc2nc3scc(-c4cccs4)c3c(=O)n2-c2ccccc2)sc2c1CCC2,0.09
14,COc1ccc(C(=O)C2=C(O)C(=O)N(CCCN3CCOCC3)C2c2ccccn2)cc1 (centres unmarked),-0.04
15,O=C1NC(=S)NC(=O)C1=NNc1ccc(SC(F)F)cc1,0.06
16,CCCc1nnc(SC(C)C(=O)Nc2ccc(C(N)=O)cc2)n1CC(=O)O (centres unmarked),-0.23
17,COc1ccc(NC(=O)CCc2ccc(F)c(F)c2)cc1OCc1cn2ccccc2n1,-0.18
18,NCC(O)C1CC1 (centres unmarked),-0.24
19,O=C1CCCCCN1Cc1nnc(Sc2ncnc3cc(-c4ccc(Cl)cc4)sc23)o1,0.18
20,Clc1ccc(-c2nnn[nH]2)cc1,0.02
21,O=C(O)c1ccc2[nH]ccc2c1,-0.01
22,CCSCCC(=O)O,-0.06
23,O=C1NC2(CCc3ccccc3C2)C(=O)N1Cc1nc2ccccc2s1 (centres unmarked),-0.11
